# Reference: the supplement of paper PMC4604168 (melanoma cell lines)
# The list shows a part of the results. Repeats are few or missing, and single values can be far off.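 Imaging used 1,536-well plates; nuclei positive for cleaved PARP by antibody were divided by total DNA-stained nuclei to yield the apoptosis fraction. Doses for screening kept most cells viable, and cell lines differ markedly in resting and induced cleaved-PARP levels.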
# Tested on: COLO829
# Experiment: cleaved PARP positive nuclei fraction relative to DMSO control; melanoma cells; higher = more apoptosis
# Details: library dose: low library concentration; 72 h
row,SMILES,cleaved PARP positive nuclei fraction [%]
1,"Cc1nc(Nc2ncc(C(=O)Nc3c(C)cccc3Cl)s2)cc(N2CCN(CCO)CC2)n1 [dasatanib] + CCN(CC)CCCCNc1ncc2cc(-c3cc(OC)cc(OC)c3)c(NC(=O)NC(C)(C)C)nc2n1 [PD173074] (first compound 0.004 µM, partner dose 0.1 µM)",160
2,"CC1(C)NC(=O)N(c2ccc([N+](=O)[O-])c(C(F)(F)F)c2)C1=O [nilutamide] + COc1ccc(COc2ccc(Cc3cnc(N)nc3N)cc2OC)cc1 [GW2580] (first compound 1 µM, partner dose 1 µM)",71.5
3,"COCC[n+]1c2c(n(Cc3cnccn3)c1C)C(=O)c1ccccc1C2=O + CCc1ccc(CCOc2ccc(CC3SC(=O)NC3=O)cc2)nc1 [pioglitazone] (first compound 0.0004 µM, partner dose 2 µM)",154
4,"O=C(CCCCCCC(=O)Nc1ccccc1)NO [vorinostat] + COc1ccc(-c2ccc3c(N4CCOCC4)nc(N4C[C@@H](C)O[C@@H](C)C4)nc3n2)cc1CO [KU0063794] (first compound 0.08 µM, partner dose 0.02 µM)",210
5,"COc1cc(Nc2ncc(F)c(Nc3ccc4c(n3)NC(=O)C(C)(C)O4)n2)cc(OC)c1OC [Tamatinib] + O=S(=O)(c1ccccc1)N(CC(F)(F)F)c1ccc(C(O)(C(F)(F)F)C(F)(F)F)cc1 [T0901317] (first compound 0.4 µM, partner dose 1.4 µM)",127
6,"NC(=O)Nc1cc(-c2cccc(F)c2)sc1C(=O)N[C@H]1CCCNC1 + O=S(=O)(c1ccccc1)N(CC(F)(F)F)c1ccc(C(O)(C(F)(F)F)C(F)(F)F)cc1 [T0901317] (first compound 0.02 µM, partner dose 1.4 µM)",52.4
7,"Cn1nnc2c(C(N)=O)ncn2c1=O [temozolomide] + COc1ccc(-c2ccc3c(N4CCOCC4)nc(N4C[C@@H](C)O[C@@H](C)C4)nc3n2)cc1CO [KU0063794] (first compound 2 µM, partner dose 0.02 µM)",59.3
8,"Nc1cccc2c1CN(C1CCC(=O)NC1=O)C2=O (stereo unspecified) [lenalidomide] + c1cc(-c2cnn3cc(-c4ccc(OCCN5CCCCC5)cc4)cnc23)ccn1 [Dorsomorphin] (first compound 1 µM, partner dose 0.4 µM)",73.3
9,"Cn1cncc1[C@@](N)(c1ccc(Cl)cc1)c1ccc2c(c1)c(-c1cccc(Cl)c1)cc(=O)n2C [tipifarnib] + c1cc(-c2cnn3cc(-c4ccc(OCCN5CCCCC5)cc4)cnc23)ccn1 [Dorsomorphin] (first compound 0.01 µM, partner dose 0.4 µM)",137
10,"Cc1cc(N2CCOCC2)cc2[nH]c(-c3c(NC[C@@H](O)c4cccc(Cl)c4)cc[nH]c3=O)nc12 + Cn1cc(/C=C2\C(=O)Nc3cccnc32)c2ccccc21 [GW441756] (first compound 0.2 µM, partner dose 0.4 µM)",32.8
11,"Cn1c(Nc2ccc(C(F)(F)F)cc2)nc2cc(Oc3ccnc(-c4ncc(C(F)(F)F)[nH]4)c3)ccc21 + Oc1nc(-c2ccc(C(F)(F)F)cc2)nc2c1CSCC2 [XAV939] (first compound 0.08 µM, partner dose 2 µM)",118
12,"Cn1nnc2c(C(N)=O)ncn2c1=O [temozolomide] + CC(C)CCN1c2nc(Nc3cc(F)c(O)c(F)c3)ncc2N(C)C(=O)C1C [BID1870] (first compound 2 µM, partner dose 0.2 µM)",111
13,"C[C@]1(c2nc3c(C(N)=O)cccc3[nH]2)CCCN1 [Veliparib] + O=C(O)C(=O)Nc1sc2c(c1C(=O)O)CCNC2 [TCS401] (first compound 1.4 µM, partner dose 1.66667 µM)",120
14,"O=C(Nc1cccc(Cl)c1)Nc1ncc(CCNc2ncnc3ccsc23)s1 + COc1cc2ncnc(Nc3ccc(Oc4ccccc4)cc3)c2cc1OC [SrcI1] (first compound 0.0008 µM, partner dose 2 µM)",159
15,"NC(=O)Nc1cc(-c2cccc(F)c2)sc1C(=O)N[C@H]1CCCNC1 + O=c1cc(-c2cccc3c2Sc2ccccc2S3)oc(N2CCOCC2)c1 [KU55933] (first compound 0.02 µM, partner dose 1 µM)",116
16,"CC(C)(C)c1cnc(CSc2cnc(NC(=O)C3CCNCC3)s2)o1 + N#Cc1c(O)c2c(-c3ccc(-c4ccccc4O)cc3)csc2[nH]c1=O [A769662] (first compound 0.01 µM, partner dose 2 µM)",139

# Random excerpt: two entries already listed, in no set order.
row,SMILES,cleaved PARP positive nuclei fraction [%]
9,"Cn1cncc1[C@@](N)(c1ccc(Cl)cc1)c1ccc2c(c1)c(-c1cccc(Cl)c1)cc(=O)n2C [tipifarnib] + c1cc(-c2cnn3cc(-c4ccc(OCCN5CCCCC5)cc4)cnc23)ccn1 [Dorsomorphin] (first compound 0.01 µM, partner dose 0.4 µM)",137
3,"COCC[n+]1c2c(n(Cc3cnccn3)c1C)C(=O)c1ccccc1C2=O + CCc1ccc(CCOc2ccc(CC3SC(=O)NC3=O)cc2)nc1 [pioglitazone] (first compound 0.0004 µM, partner dose 2 µM)",154
